Here are results for nine compounds from PubChem BioAssay AID258 (DTP/NCI, 2004).

This test deals with CD2F1 mice, L1210 leukemia sc, survival T/C. Briefly: NCI In Vivo Anticancer Drug Screen. Data for tumor model L1210 Leukemia (subcutaneous) in CD2F1 (CDF1) mice. Conditions: T/C endpoint: median survival time, higher T/C = longer survival. A digest of the protocol:
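Compound given to mice bearing transplantable tumor. Survival or tumor size then recorded. Result expressed relative to vehicle-dosed control group as T/C.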

The list is a part of this screen's results and no random one: it is rich in T/C values a quarter to a half above the control, in often repeated tests (any T/C) and in doses without a T/C. Other doses and runs of a compound stand elsewhere. T/C gives the treated animals as a percentage of the vehicle group. Some entries give survivors of the animals treated and no T/C: the source files T/C as zero there, which appears to mark a toxic dose or a test without result, not a measured value. Counts of survivors are from the toxicity check (mostly the fifth day) where no day follows; animals may have died later. Schedules are NCI's codes, read here as Q, the interval in days (D) or hours (H), X, the number of doses. Some entries were tested several times; the results are listed from low to high. Some schedule codes hold Z or #, which are not explained here. Some structures stand for samples that the source files as different forms (salt, stereo form or complex); doses refer to the form tested. Where survival is the endpoint, the PubChem record calls one and a half times the control and up active, and a quarter to a half above the control has no call in these data; cut-offs in other NCI protocols can differ. Brackets with × say how often a value occurs here. Some T/C values carry the count of animals alive at the toxicity check (mostly the fifth day); without a count, all were alive then.

Turning to `CC(CN1CC(=O)NC(=O)C1)N1CC(=O)NC(=O)C1` (stereo not given), the T/C (dose: 3.75 mg/kg/injection, schedule: Q01DX009 (sc), vehicle: saline with Tween-80) is 126 % of control; the T/C (dose: 5.0 mg/kg/injection, schedule: Q01DX009 (ip), vehicle: saline with Tween-80) is 126 % of control; the T/C (dose: 7.5 mg/kg/injection, schedule: Q01DX009 (sc), vehicle: saline with Tween-80) is 137 % of control; the T/C (dose: 10.0 mg/kg/injection, schedule: Q01DX009 (ip), vehicle: saline with Tween-80) was 129 % of control; the T/C (dose: 15.0 mg/kg/injection, schedule: Q01DX009 (sc), vehicle: saline with Tween-80) is 149 % of control; the T/C (dose: 20.0 mg/kg/injection, schedule: Q01DX009 (ip), vehicle: saline with Tween-80) is 142 % of control. Also, the T/C (dose: 30.0 mg/kg/injection, schedule: Q01DX009 (sc), vehicle: saline with Tween-80, evaluated on day 30) is 163 and 196 % of control; the T/C (dose: 30.0 mg/kg/injection, schedule: Q01DX009 (sc), vehicle: saline with Tween-80, evaluated on day 45) was 161 and 186 % of control; the T/C (dose: 30.0 mg/kg/injection, schedule: Q01DX009 (sc), vehicle: saline) is 135 % of control; the T/C (dose: 40.0 mg/kg/injection, schedule: Q01DX009 (ip), vehicle: saline with Tween-80) is 143 % of control; the T/C (dose: 40.0 mg/kg/injection, schedule: Q01DX009 (sc), vehicle: saline with Tween-80) is 138 % of control; the T/C (dose: 60.0 mg/kg/injection, schedule: Q01DX009 (ip), vehicle: saline with Tween-80) was 132 % of control. The T/C (dose: 60.0 mg/kg/injection, schedule: Q01DX009 (sc), vehicle: saline with Tween-80, evaluated on day 30) was 134 % of control; the T/C (dose: 60.0 mg/kg/injection, schedule: Q01DX009 (sc), vehicle: saline with Tween-80, evaluated on day 45) is 142 % of control; the T/C (dose: 60.0 mg/kg/injection, schedule: Q01DX009 (sc), vehicle: saline) was 146 % of control; the T/C (dose: 80.0 mg/kg/injection, schedule: Q01DX009 (sc), vehicle: saline with Tween-80) is 143 % of control; the T/C (dose: 180.0 mg/kg/injection, schedule: Q04DX003 (sc), vehicle: Klucel (hydroxypropylcellulose) (HPC)) was 125 % of control; the T/C (dose: 240.0 mg/kg/injection, schedule: Q01DX009 (sc), vehicle: saline with Tween-80) was 137 % of control. The T/C runs as follows: (dose: 240.0 mg/kg/injection, schedule: Q01DX009 (sc), vehicle: saline) 127 % of control; (dose: 300.0 mg/kg/injection, schedule: Q04DX003 (sc), vehicle: Klucel (hydroxypropylcellulose) (HPC)) 144 % of control; (dose: 360.0 mg/kg/injection, schedule: Q01DX009 (sc), vehicle: saline with Tween-80) 129 % of control; (dose: 500.0 mg/kg/injection, schedule: Q04DX003 (sc), vehicle: Klucel (hydroxypropylcellulose) (HPC), evaluated on day 7) 142 % of control; (dose: 500.0 mg/kg/injection, schedule: Q04DX003 (sc), vehicle: Klucel (hydroxypropylcellulose) (HPC), evaluated on day 21) 138 % of control.
Consider `N#CC(c1ccccc1)c1cccc2ccccc12` (stereo not given), for which the T/C was 142 % of control [9 of 10 alive] (dose: 108.0 mg/kg/injection, schedule: Q01DX Z (sc), vehicle: methylcellulose (MC)) and 133 % of control (dose: 180.0 mg/kg/injection, schedule: Q01DX Z (sc), vehicle: methylcellulose (MC)). Moreover, the survivor count (dose: 300.0 mg/kg/injection, schedule: Q01DX Z (sc), vehicle: methylcellulose (MC)) is recorded as 3 of 10 and the survivor count (dose: 500.0 mg/kg/injection, schedule: Q01DX Z (sc), vehicle: methylcellulose (MC)) was 0 of 10.
On to `NC(=O)c1ncn2c(=O)n(CCCl)nnc12`, for which the T/C (dose: 3.12 mg/kg/injection, schedule: Q01DX009 (ip), vehicle: suspension in saline) was 147 % of control.
On to `O=S1(=O)CS(=O)(=O)OCCO1`, for which the T/C was 131 % of control (dose: 6.25 mg/kg/injection, schedule: Q01DX009 (ip), vehicle: Klucel (hydroxypropylcellulose) (HPC)) and 147 % of control (dose: 12.5 mg/kg/injection, schedule: Q01DX009 (ip), vehicle: Klucel (hydroxypropylcellulose) (HPC)). Further, the survivor count (dose: 100.0 mg/kg/injection, schedule: Q01DX009 (ip), vehicle: Klucel (hydroxypropylcellulose) (HPC)) is given as 0 of 6.
With `CN1CCN(CN2C(=O)C3C4C=CC(C3C2=O)C2C3C(=O)N(CN5CCN(C)CC5)C(=O)C3C42)CC1` (stereo not given), the survivor count was 0 of 6 (dose: 166.7 mg/kg/injection, schedule: Q01DX009 (ip), vehicle: water) and 0 of 6 (dose: 191.2 mg/kg/injection, schedule: Q01DX009 (ip), vehicle: water).
Consider `CSCS(=O)C[C@H](CO)NC(=O)/C=C/c1c(C)[nH]c(=O)[nH]c1=O` (stereo not given in full), for which the survivor count (dose: 8.4 mg/kg/injection, schedule: Q01DX Z (sc), vehicle: saline) is recorded as 0 of 8.
For the compound `NCCCNCCCCNC(=O)C(O)NC(=O)CCCCCCN=C(N)N` (stereo not given), the T/C was 143 % of control (dose: 0.78 mg/kg/injection, schedule: Q01DX009 (ip), vehicle: saline); 130 % of control (dose: 4.0 mg/kg/injection, schedule: Q03HX008 (ip), vehicle: saline); 129 and 138 % of control (dose: 8.0 mg/kg/injection, schedule: Q03HX008 (ip), vehicle: saline); 135 and 138 % of control (dose: 16.0 mg/kg/injection, schedule: Q03HX008 (ip), vehicle: saline). For the same compound, the survivor count runs as follows: (dose: 32.0 mg/kg/injection, schedule: Q03HX008 (ip), vehicle: saline) 6 of 10 and 6 of 10 on day 7; (dose: 50.0 mg/kg/injection, schedule: Q01DX009 (ip), vehicle: saline) 3 of 6; (dose: 64.0 mg/kg/injection, schedule: Q01DX001 (ip), vehicle: saline) 0 of 10 and 1 of 10 on day 7; (dose: 64.0 mg/kg/injection, schedule: Q03HX008 (ip), vehicle: saline) 0 of 10 and 0 of 10 on day 7.
Turning to `CC[C@](O)(C(=O)O)c1cc2n(c(=O)c1CO)Cc1cc3ccccc3nc1-2`, the T/C runs as follows: (dose: 1.0 mg/kg/injection, schedule: Q01DX009 (ip), vehicle: saline) 147 % of control; (dose: 1.0 mg/kg/injection, schedule: Q01DX009 (sc), vehicle: saline) 126 % of control; (dose: 1.33 mg/kg/injection, schedule: Q01DX009 (sc), vehicle: saline) 128 % of control; (dose: 1.5 mg/kg/injection, schedule: Q01DX009 (sc), vehicle: saline) 145 % of control; (dose: 2.0 mg/kg/injection, schedule: Q01DX009 (ip), vehicle: saline) 139 % of control; (dose: 2.0 mg/kg/injection, schedule: Q01DX009 (sc), vehicle: saline, evaluated on day 30) 144, 146, 151 % of control. The T/C by setting is: (dose: 2.0 mg/kg/injection, schedule: Q01DX009 (sc), vehicle: saline, evaluated on day 45) 147 % of control; (dose: 2.5 mg/kg/injection, schedule: Q01DX009 (sc), vehicle: saline) 137 % of control; (dose: 3.0 mg/kg/injection, schedule: Q01DX009 (ip), vehicle: saline) 139 % of control; (dose: 3.0 mg/kg/injection, schedule: Q01DX009 (sc), vehicle: saline) 141 and 148 % of control (2×); (dose: 3.5 mg/kg/injection, schedule: Q01DX009 (sc), vehicle: saline) 130 % of control; (dose: 4.0 mg/kg/injection, schedule: Q01DX009 (sc), vehicle: saline, evaluated on day 30) 126 and 150 % of control. The T/C by setting is: (dose: 4.0 mg/kg/injection, schedule: Q01DX009 (sc), vehicle: saline, evaluated on day 45) 141 and 152 % of control; (dose: 6.0 mg/kg/injection, schedule: Q01DX009 (sc), vehicle: saline) 137 % of control; (dose: 8.0 mg/kg/injection, schedule: Q01DX009 (sc), vehicle: saline) 125 % of control.
On to `CC[C@@]1(O)C(=O)OCc2c1cc1n(c2=O)Cc2cc3ccccc3nc2-1`, for which the survivor count is recorded as 6 of 10 (dose: 0.05 mg/kg/injection, schedule: Q01DX Z (sc), vehicle: carboxymethylcellulose (CMC)); 1 of 10 (dose: 0.08 mg/kg/injection, schedule: Q01DX Z (sc), vehicle: carboxymethylcellulose (CMC)); 4 of 10 (dose: 0.36 mg/kg/injection, schedule: Q01DX Z (sc), vehicle: carboxymethylcellulose (CMC)).
